Test results: the supplement of paper PMC12823440, “Inhibitors supercharge kinase turnover through native proteolytic circuits” (Nature, 2025)
Where a name gives a salt, the structure may show the parent alone. Some of the results follow. The calls rarely recur for the same compound in another form.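 Kinases, fused to nanoluciferase, were expressed in K562 cells; luminescence was measured every 4 h from 2 to 18 h as percent of control (DMSO = 100%, positive control = 0%). A time point is decreased if signal falls significantly (2 sigma). Hits were called by the authors by a rule that is not shown; the count of time points alone does not decide it.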

By UniProt entry, the sequences of proteins in these tests, tags left out.
UniProt Q15418, whole entry: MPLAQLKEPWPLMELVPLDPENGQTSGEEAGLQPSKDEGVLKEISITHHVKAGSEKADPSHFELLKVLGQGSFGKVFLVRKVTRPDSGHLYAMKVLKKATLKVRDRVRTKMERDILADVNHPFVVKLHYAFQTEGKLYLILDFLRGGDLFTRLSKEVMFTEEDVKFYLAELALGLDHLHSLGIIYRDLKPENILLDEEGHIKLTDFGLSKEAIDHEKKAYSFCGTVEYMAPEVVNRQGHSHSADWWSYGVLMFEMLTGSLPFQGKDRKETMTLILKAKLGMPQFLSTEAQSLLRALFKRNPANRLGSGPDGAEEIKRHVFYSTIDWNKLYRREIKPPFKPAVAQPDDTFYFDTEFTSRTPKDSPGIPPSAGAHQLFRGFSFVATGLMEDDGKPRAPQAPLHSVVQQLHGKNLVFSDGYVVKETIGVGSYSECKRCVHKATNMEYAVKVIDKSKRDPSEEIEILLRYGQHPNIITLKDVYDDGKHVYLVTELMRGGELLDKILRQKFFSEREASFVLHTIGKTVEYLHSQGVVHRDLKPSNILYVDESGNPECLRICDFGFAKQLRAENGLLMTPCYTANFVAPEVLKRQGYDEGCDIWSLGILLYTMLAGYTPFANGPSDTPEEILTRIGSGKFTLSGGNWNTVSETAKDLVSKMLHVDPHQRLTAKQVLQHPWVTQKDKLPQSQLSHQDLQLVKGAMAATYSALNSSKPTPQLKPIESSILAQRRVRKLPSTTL

What follows are compounds tested against RPS6KA1 (UniProt Q15418) (assay: kinase-Nluc reporter destabilization hit call (1 = scored as downregulated) (binary); higher = compound decreases kinase abundance). Conditions: 2.5 µM; K562; 2-18 h.

kinase-Nluc reporter destabilization hit call, inactive:
Cc1cccc(-c2[nH]c(CNc3ccccc3F)nc2-c2ccc3ncnn3c2)n1 [Vactosertib] 0
c1cc(-c2cnn3cc(-c4ccc(OCCN5CCCCC5)cc4)cnc23)ccn1 [Dorsomorphin (dihydrochloride)] 0
Oc1cccc(-c2nc(N3CCOCC3)c3oc4ncccc4c3n2)c1 [PI-103 (Hydrochloride)] 0
C=CC(=O)Nc1cc(Nc2nccc(-c3cn(C)c4ccccc34)n2)c(OC)cc1N(C)CCN(C)C [Osimertinib mesylate] 0
CNC(=O)c1cc(Oc2ccc(NC(=O)Nc3ccc(Cl)c(C(F)(F)F)c3)c(F)c2)ccn1 [Regorafenib (monohydrate)] 0
Cc1cccc(-c2[nH]c(CNc3ccccc3F)nc2-c2ccc3ncnn3c2)n1 [Vactosertib (Hydrochloride)] 0
COc1ccc(S(=O)(=O)Nc2ccccc2CN(C)C/C=C/c2ccc(Cl)cc2)cc1 [KN-92 (hydrochloride)] 0
CN(C)C(=O)c1cc2cnc(Nc3ccc(N4CCNCC4)cn3)nc2n1C1CCCC1 [Ribociclib hydrochloride] 0

Same assay, conditions: 10 µM; K562; 2-18 h

kinase-Nluc reporter destabilization hit call, inactive:
CNC(=O)c1ccc(Nc2ncc(C(F)(F)F)c(NCc3nccnc3N(C)S(C)(=O)=O)n2)cc1 [Defactinib (hydrochloride)] 0
C#Cc1cccc(Nc2ncnc3cc4c(cc23)OCCOCCOCCO4)c1 [Icotinib (Hydrochloride)] 0
CNC(=O)c1ccc(Nc2ncc(C(F)(F)F)c(NCc3nccnc3N(C)S(C)(=O)=O)n2)cc1 [Defactinib] 0
N#CCNC(=O)c1ccc(-c2ccnc(Nc3ccc(N4CCOCC4)cc3)n2)cc1 [Momelotinib sulfate] 0
N#CCC1(n2cc(-c3ncnc4[nH]ccc34)cn2)CN(C2CCN(C(=O)c3ccnc(C(F)(F)F)c3F)CC2)C1 [Itacitinib] 0
CC(=O)Nc1cccc(-n2c(=O)n(C3CC3)c(=O)c3c(Nc4ccc(I)cc4F)n(C)c(=O)c(C)c32)c1 [Trametinib] 0
C[C@H](CCC(=O)NCCS(=O)(=O)O)[C@H]1CC[C@H]2[C@@H]3[C@@H](O)C[C@@H]4C[C@H](O)CC[C@]4(C)[C@H]3CC[C@]12C [Tauroursodeoxycholate (sodium)] 0
Cc1cccc(/C=N/Nc2cc(N3CCOCC3)nc(OCCc3ccccn3)n2)c1 [Apilimod (mesylate)] 0
N#CCNC(=O)c1ccc(-c2ccnc(Nc3ccc(N4CCOCC4)cc3)n2)cc1 [Momelotinib] 0
C[S+]([O-])c1ccc(-c2nc(-c3ccc(F)cc3)c(-c3ccncc3)[nH]2)cc1 (centres undefined) 0
COc1cc2c(cc1OC)-c1c(C)c3ccc(OC)c(OC)c3c[n+]1CC2 [Dehydrocorydaline (chloride)] 0
CCCC(=O)Nc1ncnc2c1ncn2[C@@H]1O[C@@H]2COP(=O)(O)O[C@H]2[C@H]1OC(=O)CCC [Bucladesine (sodium)] 0
COc1ccnc(C[S+]([O-])c2nc3cc(-n4cccc4)ccc3[nH]2)c1C (centres undefined) [Ilaprazole] 0
COC(=O)[C@H](CC(C)C)NC(=O)c1ccc(NC[C@@H](N)CS)cc1-c1cccc2ccccc12 0
COc1ncc(F)cc1CNc1ccc(Cc2c[nH]c3ncc(C)cc23)c(F)n1 0
C#Cc1cccc(Nc2ncnc3cc(OCCOC)c(OCCO)cc23)c1 [Desmethyl Erlotinib] 0
Cn1ncc(Cl)c1-c1cc(C(=O)N[C@H](CN)Cc2cccc(F)c2)sc1Cl [Afuresertib] 0
O=C(c1ccc(F)c(F)c1Nc1ccc(I)cc1F)N1CC(O)([C@@H]2CCCCN2)C1 [Cobimetinib (hemifumarate)] 0
COc1cc(/C=C/C(=O)O)ccc1O [Ferulic acid (sodium)] 0
CNc1ncc2cc(-c3ccc(-c4cccc(C)n4)cc3Cl)c(=O)n(C[C@H]3OC[C@H](N)CO3)c2n1 0
COC(=O)[C@H](CC(C)C)NC(=O)c1ccc(NC[C@@H](N)CS)cc1-c1cccc2ccccc12 [GGTI298 (Trifluoroacetate)] 0
Nc1cncc(-c2cn3ccnc3c(Nc3ccc(N4CCN(C5COC5)CC4)cc3)n2)n1 [Lanraplenib (succinate)] 0
CN(C)C(=O)c1cc2cnc(Nc3ccc(N4CCNCC4)cn3)nc2n1C1CCCC1 [Ribociclib] 0
CC(C)NC[C@@H](C(=O)N1CCN(c2ncnc3c2[C@H](C)C[C@H]3O)CC1)c1ccc(Cl)cc1 [Ipatasertib] 0
COc1cc(/C=C/C(=O)O)ccc1O [Ferulic acid] 0
CN(C)C/C=C/C(=O)Nc1cc2c(Nc3ccc(F)c(Cl)c3)ncnc2cc1O[C@H]1CCOC1 [Afatinib] 0

Quoted at random: 2 records from the list, in no set order.
kinase-Nluc reporter destabilization hit call, inactive:
CNC(=O)c1ccc(Nc2ncc(C(F)(F)F)c(NCc3nccnc3N(C)S(C)(=O)=O)n2)cc1 [Defactinib] 0
COc1ncc(F)cc1CNc1ccc(Cc2c[nH]c3ncc(C)cc23)c(F)n1 0
